# From PubChem BioAssay AID540256 (National Center for Advancing Translational Sciences (NCATS), 2011)
# In all, about 300,000 compounds went through this assay and about 3,700 (1.2%) were called active. The inconclusive results got no clear call from the source; some entries with a clear call stand among them for comparison. Calls follow the shape of the full dose curve; tested in HEK293 cells. Where the call is inconclusive, the potency comes from a doubtful curve fit.
# Test: qHTS for Inhibitors of binding or entry into cells for Lassa Virus; also: nearly all actives have a fitted effect of over 50% in size
# Settings: Lassa virus pseudotype entry inhibition, cell reporter; activity change, negative = inhibition: at 37.9 µM (top of the series) unless noted
# % is scaled to controls: 0 for no effect and ±100 for the full control effect; potency is read from the fitted curve at half-maximal effect.
Structure (SMILES),"activity change, negative = inhibition",Potency
CN(c1ccccc1)S(=O)(=O)c1cccc(NC(=O)COc2cccc([N+](=O)[O-])c2)c1,inactive: -20.5%,
O=C(Nc1ccc2c(c1)OCO2)c1ccc(Br)s1,,"inconclusive: 13 µM [inhibitor, single point]"
CCCCNC(=O)/C=C/c1ccc(S(=O)(=O)Nc2ccc(OC)cc2)cc1,,"inconclusive: 31.6 µM [inhibitor, single point]"
Cc1ccc(COc2ccc(-c3cc(C(F)(F)F)n4nc(C)cc4n3)cc2)cc1,inactive: 20.4% [at 46.1 µM],
Cc1ccsc1C1C(C#N)=C(N)N(N(C)C)C2=C1C(=O)CCC2 (stereo not drawn),inactive: 16.3%,
Nc1c2c(nc3ccn(-c4ccccc4)c(=O)c13)CCCCC2,,"inconclusive: 22.4 µM [activator, single point]"
CC(=O)C1=C(O)C(=O)N(CC#N)C1c1cccs1 (stereo not drawn),,"inconclusive: 3.55 µM [activator, partial curve, poor fit]"
COc1cccc(CNC(=O)Cc2csc(NC(=O)Nc3ccccc3OC)n2)c1,,"inconclusive: 35.5 µM [inhibitor, single point]"
Cc1ccc(-n2nnnc2-c2ccccc2)cc1,,"inconclusive: 12.6 µM [inhibitor, single point]"
Cc1cc(C(F)F)n2nc(C(=O)Nc3ccc(C(C)C)cc3)nc2n1,inactive: -10.3% [at 46.1 µM],
CC1CC(C)CN(S(=O)(=O)c2ccc(NC(=O)C3CSC4(C)CCC(=O)N34)cc2)C1 (stereo not drawn),,"inconclusive: 11.2 µM [inhibitor, single point]"
Cc1ccccc1-n1c(CSC(=N)N)nc2ccccc2c1=O,inactive: -20%,
COc1ccc(OCC(=O)Nc2ccc(S(=O)(=O)N3CCCCCC3)cc2)cc1,inactive: 9.12%,
COC(=O)CNC(=O)C(Cc1c[nH]c2ccccc12)NC(=O)OC(C)(C)C (stereo not drawn),,"inconclusive: 7.08 µM [inhibitor, partial curve, poor fit]"
COCCNC(=O)Cn1cnc2c1c(=O)n(C)c(=O)n2C,inactive: 7.91%,
Cc1ccc(S(=O)(=O)N2CCc3cc(C(=O)Nc4ccc(C(F)(F)F)cc4)ccc32)cc1,,"inconclusive: 3.16 µM [inhibitor, partial curve, poor fit]"
O=C(O)CSC1CC(=O)N(c2ccc(Cl)c(Cl)c2)C1=O (stereo not drawn),inactive: 8.09%,
CCc1ccc(-c2cc3c(=O)n(CC(=O)NCCCN4CCN(C)CC4)ncn3n2)cc1,,"inconclusive: 12.6 µM [inhibitor, single point]"
COc1ccccc1CNc1ncnc2sccc12,,"inconclusive: 2.24 µM [inhibitor, full curve, poor fit]"
COc1ccc(CCNC(=O)CSc2cn(CCNC(=O)c3cccc(C(F)(F)F)c3)c3ccccc23)cc1OC,,"inconclusive: 11.2 µM [inhibitor, partial curve, poor fit]"
O=S(=O)(NC1CCc2ccccc21)c1ccc(S(=O)(=O)N2CCCC2)cc1 (stereo not drawn),,"inconclusive: 18.3 µM [inhibitor, single point]"
CC1(c2ccc(OC(F)F)cc2)NC(=O)N(CC(=O)Nc2ccccc2)C1=O (stereo not drawn),inactive: -43.2%,
O=C1Nc2ccccc2/C1=C/c1ccc([N+](=O)[O-])cc1,,"inconclusive: 35.5 µM [inhibitor, single point]"

Structure (SMILES),"activity change, negative = inhibition",Potency
Cc1nn(CC(=O)N2CCCCCC2)c(=O)c2cc3occc3n12,inactive: 0.188% [at 46.1 µM],
CCOC(=O)C1=c2s/c(=C\c3ccncc3)c(=O)n2C(N)=C(C(=O)OC)C1c1ccncc1 (stereo not drawn),inactive: -19.4%,
COc1ccc(O[C@H]2C=C[C@@H](c3ccccc3)O[C@@H]2COC(=O)CC/C(C)=N/O[C@@H](C)CN2CCCCc3nc(C)c(C)cc32)cc1,,"inconclusive: 16.4 µM [inhibitor, partial curve]"
COC(=O)C(NNc1ccc(F)cc1)(NC(=O)c1ccccc1)C(F)(F)F (stereo not drawn),,"inconclusive: 25.1 µM [inhibitor, partial curve, poor fit]"
O=C1C(Br)=C(c2ccccc2)C(c2ccccc2)=C1c1ccccc1,,"inconclusive: 0.891 µM [inhibitor, full curve, poor fit]"
O=C(CCSc1nc2ccccc2s1)N/N=C/c1c(O)ccc2ccccc12,,"inconclusive: 16.4 µM [inhibitor, partial curve, poor fit]"
CCC(=O)N1CCc2cc(S(=O)(=O)NC(CC(C)C)C(=O)NCCc3cccc(C)c3)ccc21 (stereo not drawn),,"inconclusive: 3.16 µM [inhibitor, single point]"
CC1CC(C)CN(C(=O)CCNS(=O)(=O)c2cccs2)C1 (stereo not drawn),inactive: 0.501%,
COc1cccc(NC(=O)CSCc2cc(=O)c3ccc(C)c(C)c3[nH]2)c1,inactive: 12.7% [at 46.1 µM],
COc1ccc(CNCC(O)(c2ccc(F)cc2)c2ccc(F)cc2)cc1,,"inconclusive: 31.6 µM [inhibitor, partial curve, poor fit]"
Cc1ccc(C2=NOC(=O)/C2=C\c2ccc(C)o2)cc1,,"inconclusive: 15.8 µM [activator, single point]"
Cc1onc(-c2ccccc2)c1C(=O)N/N=C/c1cccc(O)c1,,"inconclusive: 6.31 µM [activator, single point]"
CCCCCCCC1=CC2=C(Cl)C(=O)C(C)(OC(C)=O)C(=O)C2=CO1 (stereo not drawn),,"inconclusive: 0.841 µM [inhibitor, single point]"
Cc1cc(C)nc(N2CCC(C(=O)NC3CC3)CC2)n1,inactive: -3.05% [at 46.1 µM],
COc1cc(CN2CCN(Cc3ccc(C)cc3)C(CCO)C2)cc(OC)c1O (stereo not drawn),,"inconclusive: 1 µM [inhibitor, single point]"
COc1ccc(NC(=O)C2CC(c3ccc(OC)c(OC)c3)=NO2)cc1OC (stereo not drawn),inactive: 1.18%,
CC1CN(C(=O)CN2C(=O)c3ccccc3C2=O)CC(C)O1 (stereo not drawn),,"inconclusive: 6.31 µM [inhibitor, single point]"
CC(c1ccccc1)N1CCN(C(=O)CCl)CC1 (stereo not drawn),,"inconclusive: 10.3 µM [inhibitor, partial curve, poor fit]"
COc1cccc(N2CCN(C(=O)CCCn3c(=O)[nH]c4ccc(Br)cc4c3=O)CC2)c1,,"inconclusive: 35.5 µM [inhibitor, single point]"
CCOc1ccc(CNC(=O)c2ccc3nc(CC)c(CC)nc3c2)cc1,inactive: -1.6% [at 46.1 µM],
CCOc1ccccc1NC(=O)CN(c1ccc(C)cc1)S(=O)(=O)c1c(C)noc1C,,"inconclusive: 25.1 µM [inhibitor, single point]"
CC(C)CCn1c(SCc2ccc(Cl)cc2)nc2c1c(=O)[nH]c(=O)n2C,,"inconclusive: 20.6 µM [inhibitor, single point]"
Cc1nc2cc(C(=O)OCC(=O)Nc3ccc(C#N)cc3)ccc2n1-c1ccccc1,,"inconclusive: 0.058 µM [inhibitor, partial curve, poor fit]"

# Arranged by length of the SMILES (smallest number first): some entries from above
Structure (SMILES),"activity change, negative = inhibition",Potency
CC1CC(C)CN(C(=O)CCNS(=O)(=O)c2cccs2)C1 (stereo not drawn),inactive: 0.501%,
CCCCCCCC1=CC2=C(Cl)C(=O)C(C)(OC(C)=O)C(=O)C2=CO1 (stereo not drawn),,"inconclusive: 0.841 µM [inhibitor, single point]"
COc1cccc(N2CCN(C(=O)CCCn3c(=O)[nH]c4ccc(Br)cc4c3=O)CC2)c1,,"inconclusive: 35.5 µM [inhibitor, single point]"
CCOC(=O)C1=c2s/c(=C\c3ccncc3)c(=O)n2C(N)=C(C(=O)OC)C1c1ccncc1 (stereo not drawn),inactive: -19.4%,

# Going on with the list.

Structure (SMILES),"activity change, negative = inhibition",Potency
CCCCc1ccc(-n2nnnc2SCC(=O)Nc2cc(OC)c([N+](=O)[O-])cc2C)cc1,,"inconclusive: 6.31 µM [inhibitor, single point]"
CCCn1c2ccccc2c2cnn(CC(=O)N3CCN(c4ccccc4F)CC3)c(=O)c21,inactive: 3.17% [at 46.1 µM],
CCOc1ccc(C2=Nn3c(nnc3-c3ccc(OC)cc3)SC2)cc1,,"inconclusive: 5.17 µM [inhibitor, full curve]"
Cc1c(CCO)c(=O)[nH]n1C(=O)c1ccc(F)cc1,inactive: 9.38%,
CC(C)CCNC(=O)/C=C/c1ccc(Br)cc1,,active: 1.58 µM
CS(=O)(=O)N1N=C(c2ccco2)CC1c1ccc(Br)cc1 (stereo not drawn),,"inconclusive: 2.59 µM [activator, full curve, poor fit]"
Cc1ccc(CSc2nnc(-c3cccc(S(=O)(=O)N4CCOCC4)c3)n2CC(C)C)cc1,,"inconclusive: 16.4 µM [inhibitor, single point]"
O=C1C2C3C=CC(C3)C2C(=O)N1/N=C/c1cn(Cc2ccccc2)c2ccccc12 (stereo not drawn),,"inconclusive: 15.8 µM [inhibitor, single point]"
O=C(Nc1cccnc1)c1ccc(Oc2ccccc2)cc1,,"inconclusive: 18.3 µM [inhibitor, single point]"
Cc1ccc(C)c(N2CCN(C(=O)CCCN3C(=S)NC(C)(C)CC3C)CC2)c1 (stereo not drawn),,"inconclusive: 32.6 µM [inhibitor, partial curve, poor fit]"
CC(=O)Nc1ccc(NC(=O)c2cc(C)nn2-c2ccccc2)cc1,inactive: -7.27%,
Cc1ccc(Oc2ccc(S(=O)(=O)NCC(C)(C)N3CCOCC3)cc2)cc1,,"inconclusive: 35.5 µM [inhibitor, single point]"
CCCCn1c(O)c(C(CC)=Nc2ccc3c(c2)CCC3)c(=O)[nH]c1=O,,active: 1.3 µM
CCSc1cc(N2CCOCC2)nc(-c2ccccc2)n1,,"inconclusive: 0.146 µM [inhibitor, full curve, poor fit]"
C=CCN1C[C@H](COC(=O)CSc2ccccc2)Oc2cccc(F)c2S1(=O)=O,,"inconclusive: 0.396 µM [activator, full curve, poor fit]"
CC(C)(C)c1ccc(Cn2c(=O)cnc3ccccc32)cc1,,active: 10 µM
COc1ccc(N2C(=O)c3ccccc3NC2c2ccc(OC)c(COc3ccccn3)c2)cc1 (stereo not drawn),,"inconclusive: 1.26 µM [activator, full curve, poor fit]"
CC(=O)c1ccccc1OCC(O)CN1CCN(c2ccccn2)CC1 (stereo not drawn),inactive: 3.62% [at 46.1 µM],
Cc1ccc(-n2c(C)cc(C(=O)CSc3nncs3)c2C)cc1,,"inconclusive: 11.6 µM [inhibitor, partial curve, poor fit]"
O=c1c2cnn(-c3ccc(F)cc3)c2ncn1Cc1cccc(Cl)c1,,"inconclusive: 10 µM [activator, partial curve, poor fit]"
CCc1ccc(C(=O)Nc2nc(C)cs2)s1,,active: 1.26 µM
N/C(=N\OC(=O)CCC1CCCCC1)c1cccc([N+](=O)[O-])c1,inactive: 12.6%,
